T. brucei: 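Whole-parasite assay of Trypanosoma brucei over 72 hours; the read-out is not stated. Tested at 30 µM. Direction is inferred from retests: higher values go with stronger inhibition. Values scatter widely below zero; nearly all retest evidence comes from the higher of the two concentrations used. About 64,000 compounds were tested under these conditions; 1.5% (about 940) showed 50% or more at least once.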
Toxoplasma: 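Assay of Toxoplasma gondii numbers, read through their beta-galactosidase reporter with a colour substrate. Concentration: 10 µM. The record gives no direction; the compounds picked for IC50 retests had high values, so higher reads as fewer parasites. Of about 67,000 compounds tested this way, about 260 (0.38%) reached 50% or more in at least one test.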

Each number is a percent effect as filed. The controls that fix the scale are not given in the record; negative values are as filed. Compounds were drawn at random from those tested, without regard to their results.

{"compound": "Cc1ccc(C)c(C(=O)N2CCOC(CCN(C)C)C2)c1", "stereo": "centres undefined", "T. brucei": 16.2, "Toxoplasma": 8.314}
{"compound": "CC(C)c1nc(-c2ccc(=O)[nH]n2)n(-c2ccc3c(c2)OCO3)n1", "T. brucei": -10.93, "Toxoplasma": -1.731}
{"compound": "CC(C)(CNC(=O)Nc1nccs1)N1CCOCC1", "T. brucei": -49.54, "Toxoplasma": 2.811}
{"compound": "Cc1ccc(C(=O)N2CCCC(c3nncn3C)C2)c(C)c1", "stereo": "centres undefined", "Toxoplasma": 11.86}
{"compound": "COc1ccc(C)cc1C(C)NC(=O)NCCCn1cncn1", "stereo": "centres undefined", "T. brucei": -25.09, "Toxoplasma": 8.333}
{"compound": "O=C(Nc1cccc(CN2CCOC2=O)c1)N1CCCC1", "T. brucei": -2.123, "Toxoplasma": -11.17}
{"compound": "COc1ccc(Cl)cc1CS(=O)(=O)CC(=O)NC(C)CCC(C)C", "stereo": "centres undefined", "T. brucei": -21.9, "Toxoplasma": 5.869}
{"compound": "CN(C)Cc1n[nH]c2c1CCN(Cc1cccs1)C2.O=C(O)C(F)(F)F.O=C(O)C(F)(F)F", "T. brucei": -12.11, "Toxoplasma": -5.235}
{"compound": "O=S(=O)(Cc1ccc(F)cc1)NCc1nnc2n1CCC2", "T. brucei": -2.714, "Toxoplasma": -14.89}
{"compound": "c1cnc2nc(N3CCCC3c3nnc4n3CCCCC4)ccc2n1", "stereo": "centres undefined", "T. brucei": -52.18, "Toxoplasma": 2.224}
{"compound": "COc1ccc(OC)c(C2CCN(c3ccc4cc[nH]c4n3)C2)c1", "stereo": "centres undefined", "T. brucei": 11.83, "Toxoplasma": 10.54}
{"compound": "Cc1cc(NC(=O)NCC2(O)CCCC2)ccn1", "T. brucei": -3.138, "Toxoplasma": -4.367}
{"compound": "COc1ccccc1-c1nc(C(=O)N(C)C)n2ccncc12", "Toxoplasma": 13.56}
{"compound": "COc1cccc(-c2noc(C3CCN(Cc4ccccc4C)C3)n2)c1.Cl", "stereo": "centres undefined", "T. brucei": -12.24, "Toxoplasma": 42.09}
{"compound": "CCc1nc(CNC(=O)Nc2ccc(C(=O)NC)cc2C)cs1", "T. brucei": 19.49, "Toxoplasma": -2.093}
{"compound": "O=C(O)C(F)(F)F.[H][C@@]12CN(Cc3ccc(C)cc3)C[C@]1([H])CN(c1ncccn1)C2", "T. brucei": -42.96, "Toxoplasma": 13.48}
{"compound": "O=C(O)C(F)(F)F.[H][C@@]12CCCO[C@]1([H])[C@H](NS(C)(=O)=O)CN2C(=O)c1ccccn1", "Toxoplasma": 0.5917}
{"compound": "CCN(Cc1noc(C2CC2)n1)C(=O)c1onc2ccccc12", "T. brucei": -38.07, "Toxoplasma": 6.164}
{"compound": "CCOC(=O)N1CCN(C(=O)c2cc(OCC)c3ccoc3c2)CC1", "T. brucei": -49.83, "Toxoplasma": -22.24}
{"compound": "Cc1ccc2c(n1)N(CC1CC1)CCN(Cc1cnn(C)c1)C2", "T. brucei": -21.1, "Toxoplasma": 8.38}
{"compound": "Cc1oncc1C(=O)N1CC2CC1(C(=O)N1CCCC1)C2", "T. brucei": -1.528, "Toxoplasma": -12.91}
{"compound": "COc1cc(NCc2c(C)noc2C)c(C(=O)N(C)C)cc1OC", "T. brucei": -4.803, "Toxoplasma": 5.936}
{"compound": "CCc1ccc(S(=O)(=O)Nc2ccc(F)cc2C(=O)O)s1", "Toxoplasma": 35.95}
{"compound": "COc1cccc(CC(=O)N2CCCC(c3nncn3C)C2)c1", "stereo": "centres undefined", "T. brucei": -16.66, "Toxoplasma": 19.62}
{"compound": "CCOc1ccc(Cl)cc1C1CCCCN1.Cl", "stereo": "centres undefined", "T. brucei": -10.24, "Toxoplasma": 14.05}
{"compound": "O=C1CCCN1Cc1noc(-c2ccc(Cl)cc2)n1", "Toxoplasma": 22.26}
{"compound": "CN(C)C1CN(C(=O)Nc2cccc(OC(F)F)c2)C1", "T. brucei": -66.32, "Toxoplasma": 4.482}
{"compound": "Cc1ccc(CNC(=O)CCNS(C)(=O)=O)cc1", "T. brucei": -25.37, "Toxoplasma": -4.443}
{"compound": "CCOC(=O)NCCNC(=O)c1cc2ccccc2nc1N1CCCC1", "T. brucei": 6.367, "Toxoplasma": 2.273}
{"compound": "Cc1ccc(C(=O)NCC(O)c2cnn(C)c2)c(Br)c1", "stereo": "centres undefined", "T. brucei": -46.44, "Toxoplasma": -14.29}

Some entries from above, unchanged:

| Compound | T. brucei | Toxoplasma |
|---|---|---|
| `c1cnc2nc(N3CCCC3c3nnc4n3CCCCC4)ccc2n1` (centres undefined) | -52.18 | 2.224 |
| `CN(C)Cc1n[nH]c2c1CCN(Cc1cccs1)C2.O=C(O)C(F)(F)F.O=C(O)C(F)(F)F` | -12.11 | -5.235 |
| `COc1cc(NCc2c(C)noc2C)c(C(=O)N(C)C)cc1OC` | -4.803 | 5.936 |
| `COc1ccc(Cl)cc1CS(=O)(=O)CC(=O)NC(C)CCC(C)C` (centres undefined) | -21.9 | 5.869 |

Measurements from “University of Dundee, Small-Polar-MMV Screening Library” (2021), ChEMBL document CHEMBL3988442.